# According to the supplement of paper PMC12067093, “Discovery and optimisation of a covalent ligand for TRIM25 and its application to targeted protein ubiquitination” (Chemical Science, 2025):
# By UniProt entry, the sequences of proteins in these tests, tags left out. Where a name states a change or a piece, a line headed by the entry shows the natural chain unless it says otherwise.
# UniProt P11717, whole entry, looked up: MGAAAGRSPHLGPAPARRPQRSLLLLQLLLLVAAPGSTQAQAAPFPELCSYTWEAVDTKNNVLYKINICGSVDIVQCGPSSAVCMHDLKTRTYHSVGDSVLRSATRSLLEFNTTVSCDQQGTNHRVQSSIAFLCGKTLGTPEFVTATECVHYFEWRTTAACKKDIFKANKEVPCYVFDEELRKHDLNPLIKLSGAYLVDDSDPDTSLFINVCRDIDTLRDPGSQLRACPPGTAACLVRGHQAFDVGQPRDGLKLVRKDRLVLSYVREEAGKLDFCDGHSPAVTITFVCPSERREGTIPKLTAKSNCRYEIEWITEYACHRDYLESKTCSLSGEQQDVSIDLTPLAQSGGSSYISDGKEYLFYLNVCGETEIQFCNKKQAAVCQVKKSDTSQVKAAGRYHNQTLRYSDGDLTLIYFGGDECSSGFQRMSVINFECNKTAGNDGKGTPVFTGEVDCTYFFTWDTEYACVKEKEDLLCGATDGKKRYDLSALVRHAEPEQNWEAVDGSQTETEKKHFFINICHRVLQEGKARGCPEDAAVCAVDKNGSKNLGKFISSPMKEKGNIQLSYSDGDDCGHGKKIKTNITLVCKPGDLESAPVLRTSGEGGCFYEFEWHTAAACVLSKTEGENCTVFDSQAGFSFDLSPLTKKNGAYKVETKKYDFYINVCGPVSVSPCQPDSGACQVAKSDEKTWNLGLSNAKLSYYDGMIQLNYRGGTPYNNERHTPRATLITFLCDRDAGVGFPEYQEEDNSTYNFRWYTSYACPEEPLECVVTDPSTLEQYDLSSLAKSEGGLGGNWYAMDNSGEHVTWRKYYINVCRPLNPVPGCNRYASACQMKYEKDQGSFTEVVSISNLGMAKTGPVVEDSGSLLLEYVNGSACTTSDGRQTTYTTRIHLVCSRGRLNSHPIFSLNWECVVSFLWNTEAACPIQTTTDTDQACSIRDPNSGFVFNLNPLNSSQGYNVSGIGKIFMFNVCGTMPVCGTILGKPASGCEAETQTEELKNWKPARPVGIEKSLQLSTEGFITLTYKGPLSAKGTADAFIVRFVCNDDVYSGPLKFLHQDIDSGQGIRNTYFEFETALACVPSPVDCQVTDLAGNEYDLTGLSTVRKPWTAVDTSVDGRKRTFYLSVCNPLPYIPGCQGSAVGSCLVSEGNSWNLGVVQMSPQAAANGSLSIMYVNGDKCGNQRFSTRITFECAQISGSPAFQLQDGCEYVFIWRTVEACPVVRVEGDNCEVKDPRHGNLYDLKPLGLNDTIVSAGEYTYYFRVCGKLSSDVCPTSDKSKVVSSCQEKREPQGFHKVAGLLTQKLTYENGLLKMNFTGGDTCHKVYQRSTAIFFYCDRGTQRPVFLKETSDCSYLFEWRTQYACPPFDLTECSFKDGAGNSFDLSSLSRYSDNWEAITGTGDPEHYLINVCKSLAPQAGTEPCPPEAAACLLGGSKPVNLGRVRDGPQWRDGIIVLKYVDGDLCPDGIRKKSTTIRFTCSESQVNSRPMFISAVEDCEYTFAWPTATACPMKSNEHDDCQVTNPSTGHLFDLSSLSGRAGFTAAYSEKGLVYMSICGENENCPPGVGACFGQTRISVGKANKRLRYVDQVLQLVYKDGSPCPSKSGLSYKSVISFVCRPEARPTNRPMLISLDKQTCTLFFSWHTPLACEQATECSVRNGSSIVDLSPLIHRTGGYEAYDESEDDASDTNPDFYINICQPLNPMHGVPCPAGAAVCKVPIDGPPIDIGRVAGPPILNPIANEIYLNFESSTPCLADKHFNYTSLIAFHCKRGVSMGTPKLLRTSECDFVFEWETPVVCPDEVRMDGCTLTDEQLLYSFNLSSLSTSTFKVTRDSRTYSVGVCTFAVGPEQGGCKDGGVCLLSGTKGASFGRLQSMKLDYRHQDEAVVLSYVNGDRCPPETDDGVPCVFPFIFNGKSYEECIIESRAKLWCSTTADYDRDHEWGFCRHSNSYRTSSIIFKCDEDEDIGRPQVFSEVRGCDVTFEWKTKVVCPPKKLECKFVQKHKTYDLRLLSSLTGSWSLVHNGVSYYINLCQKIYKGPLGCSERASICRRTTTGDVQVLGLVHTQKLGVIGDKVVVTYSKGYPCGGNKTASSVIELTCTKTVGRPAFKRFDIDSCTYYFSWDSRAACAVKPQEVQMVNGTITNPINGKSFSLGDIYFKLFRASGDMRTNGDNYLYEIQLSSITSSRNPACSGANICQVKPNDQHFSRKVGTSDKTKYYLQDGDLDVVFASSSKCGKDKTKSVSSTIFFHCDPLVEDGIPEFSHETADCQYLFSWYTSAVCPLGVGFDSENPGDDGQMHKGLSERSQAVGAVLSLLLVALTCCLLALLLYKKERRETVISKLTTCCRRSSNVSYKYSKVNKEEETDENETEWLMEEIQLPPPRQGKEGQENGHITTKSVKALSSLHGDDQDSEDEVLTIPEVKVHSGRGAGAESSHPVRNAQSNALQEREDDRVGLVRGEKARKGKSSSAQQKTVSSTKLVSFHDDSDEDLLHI
# UniProt Q9NQS7, whole entry: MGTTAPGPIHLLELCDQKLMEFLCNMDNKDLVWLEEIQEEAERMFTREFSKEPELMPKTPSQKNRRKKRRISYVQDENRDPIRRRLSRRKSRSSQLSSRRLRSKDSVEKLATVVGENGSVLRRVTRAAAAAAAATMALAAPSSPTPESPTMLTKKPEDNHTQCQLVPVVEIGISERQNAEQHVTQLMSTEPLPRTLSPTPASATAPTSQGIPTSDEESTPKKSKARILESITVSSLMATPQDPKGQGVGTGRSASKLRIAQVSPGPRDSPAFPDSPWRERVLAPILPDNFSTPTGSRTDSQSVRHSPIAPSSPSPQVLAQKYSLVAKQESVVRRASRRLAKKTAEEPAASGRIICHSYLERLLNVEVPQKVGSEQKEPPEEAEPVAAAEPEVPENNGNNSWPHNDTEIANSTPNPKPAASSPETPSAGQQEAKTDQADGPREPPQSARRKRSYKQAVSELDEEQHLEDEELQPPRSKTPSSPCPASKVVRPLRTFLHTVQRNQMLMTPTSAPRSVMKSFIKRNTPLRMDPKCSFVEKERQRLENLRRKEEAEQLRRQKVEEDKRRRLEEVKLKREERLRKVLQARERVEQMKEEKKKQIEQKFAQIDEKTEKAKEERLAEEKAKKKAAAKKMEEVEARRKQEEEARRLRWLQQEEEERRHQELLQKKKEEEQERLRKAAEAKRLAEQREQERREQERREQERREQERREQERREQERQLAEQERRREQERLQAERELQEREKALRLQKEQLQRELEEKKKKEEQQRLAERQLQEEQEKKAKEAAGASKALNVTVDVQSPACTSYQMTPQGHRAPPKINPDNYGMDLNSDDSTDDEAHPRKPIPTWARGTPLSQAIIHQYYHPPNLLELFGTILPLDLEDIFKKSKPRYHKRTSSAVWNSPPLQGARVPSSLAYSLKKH
# UniProt Q13422: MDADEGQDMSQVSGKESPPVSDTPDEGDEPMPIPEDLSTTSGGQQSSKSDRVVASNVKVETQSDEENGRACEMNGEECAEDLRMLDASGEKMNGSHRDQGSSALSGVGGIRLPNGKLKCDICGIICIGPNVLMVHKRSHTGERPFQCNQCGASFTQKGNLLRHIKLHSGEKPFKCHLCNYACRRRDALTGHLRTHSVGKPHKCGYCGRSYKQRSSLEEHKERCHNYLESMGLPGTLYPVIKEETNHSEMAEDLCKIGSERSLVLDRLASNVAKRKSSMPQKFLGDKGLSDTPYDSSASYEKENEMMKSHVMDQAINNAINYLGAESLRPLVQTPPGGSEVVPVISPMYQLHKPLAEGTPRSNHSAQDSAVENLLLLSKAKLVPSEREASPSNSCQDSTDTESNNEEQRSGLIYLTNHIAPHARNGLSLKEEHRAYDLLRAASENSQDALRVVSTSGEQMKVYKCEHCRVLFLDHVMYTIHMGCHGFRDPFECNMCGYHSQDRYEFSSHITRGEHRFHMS
# UniProt Q5T013: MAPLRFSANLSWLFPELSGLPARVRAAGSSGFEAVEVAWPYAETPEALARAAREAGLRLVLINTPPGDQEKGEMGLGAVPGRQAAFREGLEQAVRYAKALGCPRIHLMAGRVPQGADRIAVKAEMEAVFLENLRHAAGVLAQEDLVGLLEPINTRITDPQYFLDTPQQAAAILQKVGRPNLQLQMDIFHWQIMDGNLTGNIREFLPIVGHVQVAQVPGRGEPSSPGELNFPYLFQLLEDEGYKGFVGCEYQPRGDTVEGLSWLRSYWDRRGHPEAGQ
# UniProt P32942: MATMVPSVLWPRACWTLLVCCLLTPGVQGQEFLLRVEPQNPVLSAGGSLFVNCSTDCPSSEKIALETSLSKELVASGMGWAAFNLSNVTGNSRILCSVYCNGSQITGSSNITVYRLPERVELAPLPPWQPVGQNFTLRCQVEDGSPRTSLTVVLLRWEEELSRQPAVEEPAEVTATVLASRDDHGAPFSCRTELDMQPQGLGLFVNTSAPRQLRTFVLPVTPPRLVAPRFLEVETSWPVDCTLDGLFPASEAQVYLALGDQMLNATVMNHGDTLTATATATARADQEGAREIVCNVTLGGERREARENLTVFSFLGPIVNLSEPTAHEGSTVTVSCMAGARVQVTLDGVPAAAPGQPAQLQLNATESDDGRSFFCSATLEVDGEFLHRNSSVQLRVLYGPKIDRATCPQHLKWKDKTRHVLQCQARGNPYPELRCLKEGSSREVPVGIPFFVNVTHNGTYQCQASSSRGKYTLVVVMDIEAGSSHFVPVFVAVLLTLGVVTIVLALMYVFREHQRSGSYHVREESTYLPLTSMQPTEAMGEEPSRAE
# UniProt Q969P0: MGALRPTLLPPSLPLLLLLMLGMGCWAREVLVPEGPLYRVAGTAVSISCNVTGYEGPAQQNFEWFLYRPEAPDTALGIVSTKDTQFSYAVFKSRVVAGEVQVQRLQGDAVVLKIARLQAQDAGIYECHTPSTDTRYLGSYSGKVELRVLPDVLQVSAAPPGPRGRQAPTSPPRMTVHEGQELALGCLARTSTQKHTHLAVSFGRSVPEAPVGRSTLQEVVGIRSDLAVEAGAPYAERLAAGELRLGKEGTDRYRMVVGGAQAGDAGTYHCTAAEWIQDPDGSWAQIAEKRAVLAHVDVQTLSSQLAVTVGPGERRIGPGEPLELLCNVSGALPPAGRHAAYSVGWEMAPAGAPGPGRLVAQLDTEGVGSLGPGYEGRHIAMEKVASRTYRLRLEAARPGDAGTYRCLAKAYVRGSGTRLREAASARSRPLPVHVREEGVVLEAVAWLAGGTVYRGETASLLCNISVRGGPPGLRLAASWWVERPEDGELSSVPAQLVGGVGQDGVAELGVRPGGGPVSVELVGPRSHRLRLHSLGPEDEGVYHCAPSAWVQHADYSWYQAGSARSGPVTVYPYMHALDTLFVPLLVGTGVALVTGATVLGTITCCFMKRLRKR
# UniProt Q9P2X3: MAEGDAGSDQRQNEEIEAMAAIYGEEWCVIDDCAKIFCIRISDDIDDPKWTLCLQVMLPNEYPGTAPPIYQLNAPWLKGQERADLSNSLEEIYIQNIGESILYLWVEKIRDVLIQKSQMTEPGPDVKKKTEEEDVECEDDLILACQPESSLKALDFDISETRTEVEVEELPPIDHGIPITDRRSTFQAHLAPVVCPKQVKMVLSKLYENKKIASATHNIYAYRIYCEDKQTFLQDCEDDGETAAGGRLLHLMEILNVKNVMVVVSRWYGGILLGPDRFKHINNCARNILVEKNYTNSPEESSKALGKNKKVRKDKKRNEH
# Some of the results follow.
# Compound: CC1Cc2ccccc2N1C(=O)C1CCCN(C1)C(=O)CCl (mixture of isomers) [TRIM25 ligand 11 (diastereomer mixture)]
# Assay: probe-labelled cysteine peptide fold change vs DMSO (competition) (log2 fold change); higher = less target engagement (more negative = stronger competition)
# Conditions: THP-1, incubation time: 4 h
# 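Also: competitive chemoproteomic profiling in live THP-1 cells with an iodoacetamide desthiobiotin (IA-DTB) probe, comparing probe-labelled peptide intensities in compound-treated cells against DMSO-treated controls.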
target,measurement,setting,value
IGF2R_P11717_149_TLGTPEFVTATECVHYFEWR (UniProt P11717),probe-labelled cysteine peptide fold change,10 µM,-0.0703
same,probe-labelled cysteine peptide fold change,50 µM,-0.305
IMPDH2_P12268_246_QLLCGAAIGTHEDDKYR (UniProt P12268),probe-labelled cysteine peptide fold change,10 µM,-0.552
same,probe-labelled cysteine peptide fold change,50 µM,-0.216
INCENP_Q9NQS7_355_IICHSYLER (UniProt Q9NQS7),probe-labelled cysteine peptide fold change,10 µM,0.0585
same,probe-labelled cysteine peptide fold change,50 µM,-0.0175
IKZF1_Q13422_175+178_CHLCNYACR (UniProt Q13422),probe-labelled cysteine peptide fold change,10 µM,0.0391
same,probe-labelled cysteine peptide fold change,50 µM,-0.104
HYI_Q5T013_248_GFVGCEYQPR (UniProt Q5T013),probe-labelled cysteine peptide fold change,10 µM,0.0282
same,probe-labelled cysteine peptide fold change,50 µM,-0.0092
ICAM3_P32942_407_ATCPQHLK (UniProt P32942),probe-labelled cysteine peptide fold change,10 µM,-0.0217
same,probe-labelled cysteine peptide fold change,50 µM,0.0837
IGSF8_Q969P0_127_LQAQDAGIYECHTPSTDTR (UniProt Q969P0),probe-labelled cysteine peptide fold change,10 µM,0.106
same,probe-labelled cysteine peptide fold change,50 µM,0.0925
INO80_Q9ULG1_1001+1011_CLLTELPSFLCVASPR (UniProt Q9ULG1),probe-labelled cysteine peptide fold change,10 µM,-0.0961
same,probe-labelled cysteine peptide fold change,50 µM,-0.462
IARS_P41252_87_RFGWDCHGLPVEYEIDK (UniProt P41252),probe-labelled cysteine peptide fold change,10 µM,-0.0612
same,probe-labelled cysteine peptide fold change,50 µM,0.00729
HUWE1_Q7Z6Z7_19_TPTEAPADCR (UniProt Q7Z6Z7),probe-labelled cysteine peptide fold change,10 µM,-0.0697
same,probe-labelled cysteine peptide fold change,50 µM,-0.167
IGF2R_P11717_1042_FVCNDDVYSGPLK (UniProt P11717),probe-labelled cysteine peptide fold change,10 µM,0.0448
same,probe-labelled cysteine peptide fold change,50 µM,-0.0425
HUWE1_Q7Z6Z7_349_LSSIIDCTGTASYHGFLPVLVR (UniProt Q7Z6Z7),probe-labelled cysteine peptide fold change,10 µM,0.118
same,probe-labelled cysteine peptide fold change,50 µM,-0.11
IMPACT_Q9P2X3_137_KKTEEEDVECEDDLILACQPESSLK (UniProt Q9P2X3),probe-labelled cysteine peptide fold change,10 µM,-0.217
same,probe-labelled cysteine peptide fold change,50 µM,-0.0824
IGF2R_P11717_1987_VVCPPK (UniProt P11717),probe-labelled cysteine peptide fold change,10 µM,-0.121
same,probe-labelled cysteine peptide fold change,50 µM,0.0903

# Some of the entries so far, with bars between the fields:
target | measurement | setting | value
HYI_Q5T013_248_GFVGCEYQPR (UniProt Q5T013) | probe-labelled cysteine peptide fold change | 10 µM | 0.0282
same | probe-labelled cysteine peptide fold change | 50 µM | -0.0092
